In PMC7956269:
Results are given in words; binding and its absence hold for the method and conditions named. In cells and extracts the contact can be indirect. A yes stands for co-enrichment or nearness to the bait. Other partners may have been found.

B1: Mcm6 (protein, UniProt Q14566 1-821)
chain: MDLAAAAEPGAGSQHLEVRDEVAEKCQKLFLDFLEEFQSSDGEIKYLQLAEELIRPERNTLVVSFVDLEQFNQQLSTTIQEEFYRVYPYLCRALKTFVKDRKEIPLAKDFYVAFQDLPTRHKIRELTSSRIGLLTRISGQVVRTHPVHPELVSGTFLCLDCQTVIRDVEQQFKYTQPNICRNPVCANRRRFLLDTNKSRFVDFQKVRIQETQAELPRGSIPRSLEVILRAEAVESAQAGDKCDFTGTLIVVPDVSKLSTPGARAETNSRVSGVDGYETEGIRGLRALGVRDLSYRLVFLACCVAPTNPRFGGKELRDEEQTAESIKNQMTVKEWEKVFEMSQDKNLYHNLCTSLFPTIHGNDEVKRGVLLMLFGGVPKTTGEGTSLRGDINVCIVGDPSTAKSQFLKHVEEFSPRAVYTSGKASSAAGLTAAVVRDEESHEFVIEAGALMLADNGVCCIDEFDKMDVRDQVAIHEAMEQQTISITKAGVKATLNARTSILAAANPISGHYDRSKSLKQNINLSAPIMSRFDLFFILVDECNEVTDYAIARRIVDLHSRIEESIDRVYSLDDIRRYLLFARQFKPKISKESEDFIVEQYKHLRQRDGSGVTKSSWRITVRQLESMIRLSEAMARMHCCDEVQPKHVKEAFRLLNKSIIRVETPDVNLDQEEEIQMEVDEGAGGINGHADSPAPVNGINGYNEDINQESAPKASLRLGFSEYCRISNLIVLHLRKVEEEEDESALKRSELVNWYLKEIESEIDSEEELINKKRIIEKVIHRLTHYDHVLIELTQAGLKGSTEGSESYEEDPYLVVNPNYLLED
B2: Abcf2 (protein, UniProt Q9UG63 1-623)
chain: MPSDLAKKKAAKKKEAAKARQRPRKGHEENGDVVTEPQVAEKNEANGRETTEVDLLTKELEDFEMKKAAARAVTGVLASHPNSTDVHIINLSLTFHGQELLSDTKLELNSGRRYGLIGLNGIGKSMLLSAIGKREVPIPEHIDIYHLTREMPPSDKTPLHCVMEVDTERAMLEKEAERLAHEDAECEKLMELYERLEELDADKAEMRASRILHGLGFTPAMQRKKLKDFSGGWRMRVALARALFIRPFMLLLDEPTNHLDLDACVWLEEELKTFKRILVLVSHSQDFLNGVCTNIIHMHNKKLKYYTGNYDQYVKTRLELEENQMKRFHWEQDQIAHMKNYIARFGHGSAKLARQAQSKEKTLQKMMASGLTERVVSDKTLSFYFPPCGKIPPPVIMVQNVSFKYTKDGPCIYNNLEFGIDLDTRVALVGPNGAGKSTLLKLLTGELLPTDGMIRKHSHVKIGRYHQHLQEQLDLDLSPLEYMMKCYPEIKEKEEMRKIIGRYGLTGKQQVSPIRNLSDGQKCRVCLAWLAWQNPHMLFLDEPTNHLDIETIDALADAINEFEGGMMLVSHDFRLIQQVAQEIWVCEKQTITKWPGDILAYKEHLKSKLVDEEPQLTKRTHNV
B3: Uhrf1 (protein, UniProt Q96T88 1-793)
chain: MWIQVRTMDGRQTHTVDSLSRLTKVEELRRKIQELFHVEPGLQRLFYRGKQMEDGHTLFDYEVRLNDTIQLLVRQSLVLPHSTKERDSELSDTDSGCCLGQSESDKSSTHGEAAAETDSRPADEDMWDETELGLYKVNEYVDARDTNMGAWFEAQVVRVTRKAPSRDEPCSSTSRPALEEDVIYHVKYDDYPENGVVQMNSRDVRARARTIIKWQDLEVGQVVMLNYNPDNPKERGFWYDAEISRKRETRTARELYANVVLGDDSLNDCRIIFVDEVFKIERPGEGSPMVDNPMRRKSGPSCKHCKDDVNRLCRVCACHLCGGRQDPDKQLMCDECDMAFHIYCLDPPLSSVPSEDEWYCPECRNDASEVVLAGERLRESKKKAKMASATSSSQRDWGKGMACVGRTKECTIVPSNHYGPIPGIPVGTMWRFRVQVSESGVHRPHVAGIHGRSNDGAYSLVLAGGYEDDVDHGNFFTYTGSGGRDLSGNKRTAEQSCDQKLTNTNRALALNCFAPINDQEGAEAKDWRSGKPVRVVRNVKGGKNSKYAPAEGNRYDGIYKVVKYWPEKGKSGFLVWRYLLRRDDDEPGPWTKEGKDRIKKLGLTMQYPEGYLEALANREREKENSKREEEEQQEGGFASPRTGKGKWKRKSAGGGPSRAGSPRRTSKKTKVEPYSLTAQQSSLIREDKSNAKLWNEVLASLKDRPASGSPFQLFLSKVEETFQCICCQELVFRPITTVCQHNVCKDCLDRSFRAQVFSCPACRYDLGRSYAMQVNQPLQTVLNQLFPGYGNGR
B4: Nmd3 (protein, UniProt Q96D46 1-503)
chain: MEYMAESTDRSPGHILCCECGVPISPNPANICVACLRSKVDISQGIPKQVSISFCKQCQRYFQPPGTWIQCALESRELLALCLKKIKAPLSKVRLVDAGFVWTEPHSKRLKVKLTIQKEVMNGAILQQVFVVDYVVQSQMCGDCHRVEAKDFWKAVIQVRQKTLHKKTFYYLEQLILKYGMHQNTLRIKEIHDGLDFYYSSKQHAQKMVEFLQCTVPCRYKASQRLISQDIHSNTYNYKSTFSVEIVPICKDNVVCLSPKLAQSLGNMNQICVCIRVTSAIHLIDPNTLQVADIDGSTFWSHPFNSLCHPKQLEEFIVMECSIVQDIKRAAGAGMISKKHTLGEVWVQKTSEMNTDKQYFCRTHLGHLLNPGDLVLGFDLANCNLNDEHVNKMNSDRVPDVVLIKKSYDRTKRQRRRNWKLKELARERENMDTDDERQYQDFLEDLEEDEAIRKNVNIYRDSAIPVESDTDDEGAPRISLAEMLEDLHISQDATGEEGASMLT
B5: Caap1 (protein, UniProt Q9H8G2 1-361)
chain: MTGKKSSREKRRKRSSQEAAAALAAPDIVPALASGSSGSTSGCGSAGGCGSVSCCGNANFSGSVTGGGSGGSCWGGSSVERSERRKRRSTDSSSVSGSLQQETKYILPTLEKELFLAEHSDLEEGGLDLTVSLKPVSFYISDKKEMLQQCFCIIGEKKLQKMLPDVLKNCSIEEIKKLCQEQLELLSEKKILKILEGDNGMDSDMEEEADDGSKMGSDLVSQQDICIDSASSVRENKQPEGLELKQGKGEDSDVLSINADAYDSDIEGPCNEEAAAPEAPENTVQSEAGQIDDLEKDIEKSVNEILGLAESSPNEPKAATLAVPPPEDVQPSAQQLELLELEMRARAIKALMKAGDIKKPA
B6: Mccc1 (protein, UniProt Q96RQ3 42-725)
chain: TTATGRNITKVLIANRGEIACRVMRTAKKLGVQTVAVYSEADRNSMHVDMADEAYSIGPAPSQQSYLSMEKIIQVAKTSAAQAIHPGCGFLSENMEFAELCKQEGIIFIGPPPSAIRDMGIKSTSKSIMAAAGVPVVEGYHGEDQSDQCLKEHARRIGYPVMIKAVRGGGGKGMRIVRSEQEFQEQLESARREAKKSFNDDAMLIEKFVDTPRHVEVQVFGDHHGNAVYLFERDCSVQRRHQKIIEEAPAPGIKSEVRKKLGEAAVRAAKAVNYVGAGTVEFIMDSKHNFCFMEMNTRLQVEHPVTEMITGTDLVEWQLRIAAGEKIPLSQEEITLQGHAFEARIYAEDPSNNFMPVAGPLVHLSTPRADPSTRIETGVRQGDEVSVHYDPMIAKLVVWAADRQAALTKLRYSLRQYNIVGLHTNIDFLLNLSGHPEFEAGNVHTDFIPQHHKQLLLSRKAAAKESLCQAALGLILKEKAMTDTFTLQAHDQFSPFSSSSGRRLNISYTRNMTLKDGKNNVAIAVTYNHDGSYSMQIEDKTFQVLGNLYSEGDCTYLKCSVNGVASKAKLIILENTIYLFSKEGSIEIDIPVPKYLSSVSSQETQGGPLAPMTGTIEKVFVKAGDKVKAGDSLMVMIAMKMEHTIKSPKDGTVKKVFYREGAQANRHTPLVEFEEEESDKRESE

molecular target: Biotin-FOXC1 (mouse) (UniProt Q61572); assay: affinity purification with mass spectrometry; streptavidin-agarose precipitation of biotinylated FOXC1 from nuclear extract of stable HEK293T cells (293T-Biotin-FOXC1); IP350 buffer (350 mM NaCl, 20 mM Tris-HCl pH 7.5, 0.5% NP40, 1 mM EDTA, 10% glycerin); SDS-PAGE, LC-ESI-MS/MS; proteins of the 293T-Biotin control deducted

binding, binds:
B1
B2
B3
B4
B5
B6
